This assay has as its target T1, CYLD (endogenous, mouse BMSCs) (mouse (endogenous in BMSCs)) (UniProt Q80TQ2).
T1 sequence: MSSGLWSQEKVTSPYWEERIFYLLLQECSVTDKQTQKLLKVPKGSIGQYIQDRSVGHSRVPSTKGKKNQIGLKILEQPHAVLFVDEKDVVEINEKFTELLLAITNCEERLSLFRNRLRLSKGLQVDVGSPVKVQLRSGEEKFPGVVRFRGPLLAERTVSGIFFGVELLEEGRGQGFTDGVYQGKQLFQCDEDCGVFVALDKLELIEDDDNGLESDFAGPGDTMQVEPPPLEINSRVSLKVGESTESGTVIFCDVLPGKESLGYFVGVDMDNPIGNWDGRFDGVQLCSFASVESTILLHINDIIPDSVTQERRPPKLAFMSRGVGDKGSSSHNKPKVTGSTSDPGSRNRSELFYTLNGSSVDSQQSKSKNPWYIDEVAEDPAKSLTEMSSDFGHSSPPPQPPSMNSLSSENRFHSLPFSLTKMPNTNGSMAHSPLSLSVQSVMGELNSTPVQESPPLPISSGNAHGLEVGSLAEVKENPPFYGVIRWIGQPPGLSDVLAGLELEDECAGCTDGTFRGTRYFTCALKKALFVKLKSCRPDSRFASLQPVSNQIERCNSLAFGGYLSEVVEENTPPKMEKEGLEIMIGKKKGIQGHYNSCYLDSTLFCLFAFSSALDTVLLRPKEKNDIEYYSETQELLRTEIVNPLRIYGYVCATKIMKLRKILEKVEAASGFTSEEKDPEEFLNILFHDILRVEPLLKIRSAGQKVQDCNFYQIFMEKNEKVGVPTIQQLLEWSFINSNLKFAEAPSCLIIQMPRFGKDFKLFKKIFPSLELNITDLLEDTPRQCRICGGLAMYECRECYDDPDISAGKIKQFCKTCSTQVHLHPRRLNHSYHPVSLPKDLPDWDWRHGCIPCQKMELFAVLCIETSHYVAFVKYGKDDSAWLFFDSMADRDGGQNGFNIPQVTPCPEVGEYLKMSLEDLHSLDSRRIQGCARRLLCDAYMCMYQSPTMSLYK
Put plainly: co-IP; endogenous proteins of OVX BMSCs or normal BMSCs; Protein A/G Plus magnetic beads with antibodies to CYLD, WNK1 or IgG overnight at 4 °C; blots for CYLD or WNK1.

Protein sequences, listed by entry. Tags and fused reporters are not part of them.
UniProt P83741: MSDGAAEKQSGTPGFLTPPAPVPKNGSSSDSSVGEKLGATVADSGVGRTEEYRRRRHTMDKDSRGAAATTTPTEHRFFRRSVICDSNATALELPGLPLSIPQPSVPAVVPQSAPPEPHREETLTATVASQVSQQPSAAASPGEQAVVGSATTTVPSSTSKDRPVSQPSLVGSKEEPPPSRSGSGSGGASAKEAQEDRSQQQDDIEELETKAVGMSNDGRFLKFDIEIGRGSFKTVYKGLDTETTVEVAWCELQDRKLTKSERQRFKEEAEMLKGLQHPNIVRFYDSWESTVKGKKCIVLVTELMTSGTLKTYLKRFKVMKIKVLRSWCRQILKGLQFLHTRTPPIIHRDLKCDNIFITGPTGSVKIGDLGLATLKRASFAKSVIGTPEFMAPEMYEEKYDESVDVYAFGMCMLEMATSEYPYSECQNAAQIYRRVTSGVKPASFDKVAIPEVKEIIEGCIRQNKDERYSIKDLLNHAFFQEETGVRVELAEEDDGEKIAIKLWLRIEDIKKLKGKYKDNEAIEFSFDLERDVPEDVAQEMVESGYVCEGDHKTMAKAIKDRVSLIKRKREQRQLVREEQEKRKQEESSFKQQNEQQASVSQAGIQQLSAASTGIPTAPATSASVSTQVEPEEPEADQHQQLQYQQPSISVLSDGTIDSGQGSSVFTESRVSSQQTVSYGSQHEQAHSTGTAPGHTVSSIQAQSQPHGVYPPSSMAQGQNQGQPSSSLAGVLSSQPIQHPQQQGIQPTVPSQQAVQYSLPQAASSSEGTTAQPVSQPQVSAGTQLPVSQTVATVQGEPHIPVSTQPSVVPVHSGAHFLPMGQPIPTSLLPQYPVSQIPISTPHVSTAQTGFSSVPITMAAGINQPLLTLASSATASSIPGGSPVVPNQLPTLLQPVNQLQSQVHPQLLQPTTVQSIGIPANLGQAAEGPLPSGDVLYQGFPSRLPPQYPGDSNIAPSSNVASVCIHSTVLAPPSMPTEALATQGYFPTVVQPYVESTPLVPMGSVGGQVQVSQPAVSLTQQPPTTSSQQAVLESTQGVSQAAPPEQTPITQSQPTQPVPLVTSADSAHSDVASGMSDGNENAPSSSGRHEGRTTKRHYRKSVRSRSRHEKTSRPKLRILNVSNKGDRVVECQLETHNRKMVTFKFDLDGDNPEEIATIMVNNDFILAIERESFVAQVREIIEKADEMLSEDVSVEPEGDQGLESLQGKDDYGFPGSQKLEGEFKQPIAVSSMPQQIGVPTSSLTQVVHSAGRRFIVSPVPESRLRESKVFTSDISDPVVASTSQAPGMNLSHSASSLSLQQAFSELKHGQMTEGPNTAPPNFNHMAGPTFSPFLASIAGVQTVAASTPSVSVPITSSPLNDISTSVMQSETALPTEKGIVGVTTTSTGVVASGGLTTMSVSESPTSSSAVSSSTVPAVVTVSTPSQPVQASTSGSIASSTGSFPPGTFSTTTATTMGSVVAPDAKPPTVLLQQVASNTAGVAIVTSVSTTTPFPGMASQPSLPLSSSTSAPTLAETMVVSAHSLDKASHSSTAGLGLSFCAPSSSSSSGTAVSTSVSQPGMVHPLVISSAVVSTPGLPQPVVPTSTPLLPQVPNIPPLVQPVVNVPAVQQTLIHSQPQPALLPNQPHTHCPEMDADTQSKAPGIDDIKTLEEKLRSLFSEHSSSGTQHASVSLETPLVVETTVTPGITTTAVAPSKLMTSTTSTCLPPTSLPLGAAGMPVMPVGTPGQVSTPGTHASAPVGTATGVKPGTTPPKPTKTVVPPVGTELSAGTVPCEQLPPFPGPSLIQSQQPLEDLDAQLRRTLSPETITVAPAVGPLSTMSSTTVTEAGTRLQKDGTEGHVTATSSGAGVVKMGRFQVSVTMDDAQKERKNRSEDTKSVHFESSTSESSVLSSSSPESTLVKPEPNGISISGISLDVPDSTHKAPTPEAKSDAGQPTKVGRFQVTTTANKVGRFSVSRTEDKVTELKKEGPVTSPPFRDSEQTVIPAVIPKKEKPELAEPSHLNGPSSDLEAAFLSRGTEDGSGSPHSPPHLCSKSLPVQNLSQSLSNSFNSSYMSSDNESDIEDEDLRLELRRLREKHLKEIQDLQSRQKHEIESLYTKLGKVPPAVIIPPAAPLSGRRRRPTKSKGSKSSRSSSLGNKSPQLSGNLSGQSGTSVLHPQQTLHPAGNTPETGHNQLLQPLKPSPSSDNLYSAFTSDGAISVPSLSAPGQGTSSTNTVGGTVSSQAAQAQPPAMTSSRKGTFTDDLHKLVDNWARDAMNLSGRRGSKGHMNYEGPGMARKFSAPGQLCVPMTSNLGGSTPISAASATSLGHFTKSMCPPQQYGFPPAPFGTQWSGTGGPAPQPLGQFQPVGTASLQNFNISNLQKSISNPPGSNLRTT

No constants are given. Whether binding was seen depends on the method and setting. In cells and extracts the contact can be indirect. Some binding calls cover weakened binding; strength is not graded here.

Regarding “WNK1 (endogenous, mouse BMSCs) (from UniProt P83741 1-2377) (enzyme)”, the binding entry is reported as “binds”.
